Data taken from the supplement of paper PMC6733853.

Chains of the proteins cited; added tags and fusions are not shown.
UniProt P33535, whole entry: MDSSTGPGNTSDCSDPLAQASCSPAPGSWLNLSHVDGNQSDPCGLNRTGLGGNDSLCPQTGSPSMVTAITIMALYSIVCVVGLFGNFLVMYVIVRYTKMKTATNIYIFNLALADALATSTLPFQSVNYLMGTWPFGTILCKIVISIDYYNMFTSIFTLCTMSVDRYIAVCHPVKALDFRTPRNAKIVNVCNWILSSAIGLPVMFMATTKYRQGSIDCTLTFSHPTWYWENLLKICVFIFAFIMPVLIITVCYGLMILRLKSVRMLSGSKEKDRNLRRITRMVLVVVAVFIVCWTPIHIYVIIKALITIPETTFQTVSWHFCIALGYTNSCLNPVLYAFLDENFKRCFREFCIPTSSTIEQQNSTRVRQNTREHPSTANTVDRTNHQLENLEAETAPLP

Biological target: mu opioid receptor (rat) (UniProt P33535)
Conditions: receptor: rat MOR

COc1cccc(C2(O)CCCCC2CN(C)C)c1 (stereo not given) [Tramadol]
pEC50 (Gαi1): 4.82
pEC50 (Gαi2): 5.09
pEC50 (Gαo): 4.79
pEC50 (Kir): 4.54
pEC50 (cAMP): 5.41
